We go through 2 molecules from paper PMC10651854.

No constants are given. Whether binding was seen depends on the method and setting. In cells and extracts the contact can be indirect. A result given as binding can be weak or reduced; the word gives no strength.

For assay [1], the target named is T1, Nuclear receptor subfamily 2 group F member 1 (NR2F1) (human (endogenous in GBM cells)) (UniProt P10589).
T1 sequence: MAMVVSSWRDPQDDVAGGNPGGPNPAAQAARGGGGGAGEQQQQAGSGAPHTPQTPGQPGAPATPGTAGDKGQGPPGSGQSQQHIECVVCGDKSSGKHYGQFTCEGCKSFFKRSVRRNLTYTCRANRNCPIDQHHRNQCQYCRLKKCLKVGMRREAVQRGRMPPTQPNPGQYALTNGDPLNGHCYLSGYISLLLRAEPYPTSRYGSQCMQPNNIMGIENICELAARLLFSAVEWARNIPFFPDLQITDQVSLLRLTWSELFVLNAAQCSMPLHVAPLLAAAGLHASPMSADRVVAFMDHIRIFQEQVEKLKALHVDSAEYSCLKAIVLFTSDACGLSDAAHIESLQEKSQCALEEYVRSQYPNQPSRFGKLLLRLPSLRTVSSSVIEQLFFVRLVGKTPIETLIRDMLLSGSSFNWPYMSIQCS
The assay is described as follows: co-IP; Pierce Co-IP Kit; primary antibody (anti-463aa or anti-NR2F1) immobilised on AminoLink Plus Coupling Resin; GBM cell lysates overnight at 4 °C; eluates analysed by western blot.

The target in assay [2] is circHECTD1-encoded functional peptide 463aa (human (endogenous in GBM cells)). Described as above.

As for “circHECTD1-encoded functional peptide 463aa (human (endogenous in GBM cells))”, the binding entry in assay [1] was “binds”.

B1: Nuclear receptor subfamily 2 group F member 1 (NR2F1) (protein, UniProt P10589 1-423)
chain: T1 sequence
As to B1, in assay [2], the binding result was “binds”.
